# PubChem BioAssay AID1487 (National Center for Advancing Translational Sciences (NCATS), 2009)
# The list shows a part of the results. Further columns of the screen follow, without active or inactive calls. The list favours compounds with an active or inconclusive main result. The note in brackets gives the kind of curve behind each potency; many fits are weak.
# Assay: qHTS Assay for Modulators of Lamin A Splicing
# Details: HeLa LMNA splicing GFP/RFP minigene ratio, 48 h
# In short: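 S3 HeLa stable clones carrying a lamin A-EGFP splicing minigene plus DsRed2 were seeded at 600 cells/well in Opti-MEM with 2% FBS, pin-dosed and incubated 48 h at 37°C. Acumen cytometry (488 nm) gave the GFP/RFP total-intensity ratio.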
# [1] = measured here: GFP splicing reporter channel
# [2] = measured here: RFP viability control channel
Structure (SMILES),AC50 [1],AC50 [2]
CC(=O)NC1C(Oc2ccc(C=O)cc2)OC(COC(C)=O)C(OC(C)=O)C1OC(C)=O (stereo unspecified),"0.447 µM [falling, full curve, poor fit]","0.282 µM [falling, full curve, poor fit]"
CCN(CC)S(=O)(=O)c1ccc2[nH]cc(C(=O)NCCC3=CCCCC3)c(=O)c2c1,,"3.55 µM [rising, partial curve]"
O=C(NCCCCc1ccccc1)C1CC(c2ccc([N+](=O)[O-])cc2)=NO1 (stereo unspecified),"15.8 µM [rising, single point]","25.1 µM [rising, single point]"
Cn1cnc([N+](=O)[O-])c1S(=O)(=O)c1ccc(Cl)cc1,"25.1 µM [falling, single point]",
CC1(C)N=C(SCC(=O)Nc2ccc(Cl)cc2Cl)C(c2ccccc2)=N1,,"17.8 µM [rising, single point]"
C=CCn1c(CC(=O)OC)csc1=Nc1ccc(C(C)=O)cc1,,"35.5 µM [rising, single point]"
CC1CCCCC1NC(=O)/C(C#N)=C/C=C/c1ccccc1[N+](=O)[O-] (stereo unspecified),"8.91 µM [falling, partial curve, poor fit]",
COc1ccccc1CNC(=O)CN(c1ccc(C)cc1)S(=O)(=O)c1c(C)nn(C)c1C,"1 µM [rising, full curve, poor fit]","3.98 µM [rising, partial curve]"
O=C1N=C(N2CCOCC2)S/C1=C/c1ccc(-c2ccc(F)cc2)o1,,"12.6 µM [rising, single point]"
CCOc1ccc(C(=O)NC(=S)NCc2cccnc2)cc1[N+](=O)[O-],"11.2 µM [rising, partial curve, poor fit]","11.2 µM [rising, partial curve]"
CN1CCc2cc3c(c4c2C1CC41CCC(=NO)CC1)OCO3 (stereo unspecified),"35.5 µM [rising, single point]",
CC(C)c1ccc(NC(=O)C2C3C=CC4(CN(Cc5cccnc5)C(=O)C24)O3)cc1 (stereo unspecified),"0.00316 µM [rising, full curve, poor fit]","0.0112 µM [rising, full curve, poor fit]"
Cc1ccc(Nc2nc3nonc3[nH]c2=O)cc1,,"31.6 µM [rising, single point]"
Cc1ccc(NC(=O)c2oc3ccc(S(=O)(=O)N4CCC5(CC4)OCCO5)cc3c2C)cc1Cl,"0.00631 µM [falling, full curve, poor fit]","0.00447 µM [falling, full curve, poor fit]"
O=C(CN1C(=O)CCSc2ccc(S(=O)(=O)N3CCCC3)cc21)Nc1cccc(F)c1,,"14.1 µM [rising, single point]"
COc1cccc(CNC(=O)CNC(=S)N(Cc2ccccc2)Cc2ccccc2F)c1,,"35.5 µM [rising, single point]"
CCOC(=O)Oc1ccc2c(=O)c(Oc3cc(C)cc(C)c3)coc2c1,,"31.6 µM [rising, single point]"
COc1ccc2c(c1)[N+](C)(C)C(C)(C)C=C2C,,"3.55 µM [falling, partial curve, poor fit]"
CCS(=O)(=O)N1CCC(C(=O)c2ccc(Cl)cc2)CC1,,"22.4 µM [rising, single point]"
COc1ccc(NS(=O)(=O)c2ccc(NC(=O)c3ccccc3Br)cc2)nn1,"0.02 µM [rising, full curve, poor fit]",
CN(C)c1ccc(-c2nnc(SCC3CCCO3)n2C)cc1 (stereo unspecified),"31.6 µM [falling, single point]",
COc1ccc(Cl)cc1N1CCN(CCNC(=O)Nc2ccccc2C)CC1,,"35.5 µM [rising, single point]"
N#Cc1cc(-c2ccccc2)nnc1Oc1ccccc1Cl,"4.47 µM [rising, partial curve]","6.31 µM [rising, partial curve]"
COc1ccc(C(=O)NCCc2cc3c(OC)ccc(OC)c3[nH]c2=O)cc1OC,"0.0562 µM [rising, partial curve]","0.00891 µM [rising, partial curve, poor fit]"
COc1ccc(Cl)cc1NC(=O)c1cnc2sc(N3CCOCC3)nn2c1=O,"0.447 µM [falling, full curve, poor fit]","0.501 µM [falling, full curve, poor fit]"
CC(C)c1ccccc1-n1c(SCC(=O)N2CCN(c3ccccc3)CC2)nnc1-c1cccnc1,"35.5 µM [falling, single point]","12.6 µM [falling, partial curve]"
CN1CCN(CCNC(=O)c2cnn(-c3ccc(Cl)cc3)c2C2CCN(C(=O)OC(C)(C)C)CC2)CC1,,"0.501 µM [rising, full curve, poor fit]"
COC(=O)c1ccc(NC(=O)CN2CCN(c3ccccc3C)CC2)cc1,,"15.8 µM [rising, single point]"

# No new results follow: an excerpt of the list.
Structure (SMILES),AC50 [1],AC50 [2]
O=C(NCCCCc1ccccc1)C1CC(c2ccc([N+](=O)[O-])cc2)=NO1 (stereo unspecified),"15.8 µM [rising, single point]","25.1 µM [rising, single point]"
Cn1cnc([N+](=O)[O-])c1S(=O)(=O)c1ccc(Cl)cc1,"25.1 µM [falling, single point]",
CC1(C)N=C(SCC(=O)Nc2ccc(Cl)cc2Cl)C(c2ccccc2)=N1,,"17.8 µM [rising, single point]"

# Later entries.

Structure (SMILES),AC50 [1],AC50 [2]
CCN(C(=O)C1CCN(S(=O)(=O)c2c(C)noc2/C=C/c2ccc(C)cc2)CC1)c1cccc(C)c1,,"7.08 µM [falling, partial curve, poor fit]"
CN(C(=O)c1cnc(N2CCN(c3ncccn3)CC2)c2ccccc12)c1ccc(Cl)cc1,"1.41 µM [falling, partial curve]","1.26 µM [falling, partial curve]"
O=C(CCN1CCOCC1)N/N=C/c1cc(Br)cc(Br)c1O,"15.8 µM [falling, partial curve, poor fit]",
COc1ccccc1-c1nccc(NCc2ccccc2)n1,"5.62 µM [falling, partial curve, poor fit]",
CCC(=O)N1CCc2cc(S(=O)(=O)NC(Cc3ccccc3)C(=O)O)ccc21 (stereo unspecified),,"0.01 µM [falling, full curve]"
O=C(COC(=O)c1ccccc1C(=O)c1ccc(Cl)cc1)NCCc1ccccc1,,"35.5 µM [rising, single point]"
Cc1ccc(S(=O)(=O)Nc2ccc3nc(-c4cccc(Cl)c4)oc3c2)cc1,,"35.5 µM [falling, single point]"
O=C(Nc1nc2ccccc2s1)c1cc(-c2ccco2)nc2ccccc12,"35.5 µM [rising, single point]","35.5 µM [rising, single point]"
CC(=Nc1ccc(C)cc1C)c1sc2ccccc2c1O,"7.08 µM [rising, partial curve]",
Cc1ccc(N(CC(C)C)S(=O)(=O)c2nnc(NC(=O)C(C)C)s2)cc1,"35.5 µM [falling, single point]",
CCN(C(=O)[C@@H]1CCCN1C(=O)c1cccs1)c1nc2cc(Cl)ccc2s1,,"14.1 µM [rising, partial curve]"
CN[C@H]1[C@@H](O)[C@@H](NC)[C@@H]2O[C@@]3(O)C(=O)C[C@@H](C)O[C@H]3O[C@H]2[C@H]1O,"3.16 µM [falling, single point]","10 µM [falling, single point]"
COc1ccc(-c2nc(NC(=O)c3cc(C(C)(C)C)nn3C)sc2C)cc1,"14.1 µM [rising, partial curve]","14.1 µM [rising, single point]"
O=C1N/C(=C\c2ccccc2)c2ccccc21,,"12.6 µM [rising, single point]"
Cc1ccc(NC(=O)c2ccc(NCCCN3CCOCC3)c([N+](=O)[O-])c2)cc1Cl,,"12.6 µM [rising, partial curve]"
O=C(Nc1nnc(Cc2c[nH]c3ccccc23)s1)c1ccc(Cl)cc1Cl,,"25.1 µM [rising, partial curve]"
COc1ccc(-c2nc3sc(CCNS(=O)(=O)c4ccccc4)c(C)n3n2)cc1,,"0.00891 µM [falling, full curve, poor fit]"
CCC(=O)Oc1ccc(C(=O)Nc2ccc3c(c2)C(=O)N(C2CCCCC2)C3=O)cc1,,"14.1 µM [rising, single point]"
O=C(COc1cccc(C(F)(F)F)c1)Nc1ccc(S(=O)(=O)N2CCCC2)cc1,,"22.4 µM [rising, single point]"
CCOC(=O)C1CCN(C(=O)c2c(C)oc3c2C(=O)c2ccccc2C3=O)CC1,,"0.126 µM [rising, partial curve, poor fit]"
c1ccc(-c2ccc(-c3ccccn3)nn2)nc1,,"22.4 µM [rising, single point]"
Cc1cc2oc(=O)cc(Cn3nnc(-c4ccc(Cl)cc4)n3)c2cc1C(C)C,,"2.51 µM [rising, partial curve]"
COc1ccc(Br)cc1CNC(=O)CN1C(=O)c2cccnc2Oc2ccc(C)cc21,"11.2 µM [falling, partial curve]","14.1 µM [falling, single point]"
CCn1c(=O)c(C(=O)NCCN2CCCCC2)c(O)c2ccccc21,,"5.01 µM [rising, full curve, poor fit]"
Cc1ccc2cccc(OCC(=O)Nc3ccc4c(c3)OCO4)c2n1,"20 µM [falling, partial curve, poor fit]",
Cc1nnc(SCC(=O)c2c(N)n(C)c(=O)n(C)c2=O)[nH]c1=O,,"1 µM [falling, full curve, poor fit]"
CSc1ccc(CCNC(=O)CCCn2c(=O)c3cccn3c3ccccc32)cc1,"25.1 µM [falling, single point]","35.5 µM [falling, single point]"
